Test results taken from paper PMC4735655.

Sequences of proteins named here, by UniProt entry; tags and fusion partners are left off.
UniProt O14965: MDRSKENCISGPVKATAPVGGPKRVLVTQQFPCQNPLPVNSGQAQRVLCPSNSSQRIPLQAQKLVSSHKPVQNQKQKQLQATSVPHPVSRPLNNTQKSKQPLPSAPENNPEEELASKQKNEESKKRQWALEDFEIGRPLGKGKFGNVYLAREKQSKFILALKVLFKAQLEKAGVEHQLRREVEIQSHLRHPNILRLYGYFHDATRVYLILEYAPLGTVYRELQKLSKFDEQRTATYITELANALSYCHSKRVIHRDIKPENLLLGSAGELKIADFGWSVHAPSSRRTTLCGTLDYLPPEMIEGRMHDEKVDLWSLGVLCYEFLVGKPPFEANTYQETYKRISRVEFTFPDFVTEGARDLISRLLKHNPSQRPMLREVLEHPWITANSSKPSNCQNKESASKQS

Molecular target: AURKA, ectopically expressed (co-IP of Supplementary Fig. 3h,i,k) (human) (UniProt O14965)
Test: co-IP; ectopically expressed proteins; RIPA lysate, 1 μg antibody and 200–500 μg lysate

hnRNP K with mutation of S379 site (from UniProt P61978)
binding: binds

These are yes or no findings as the source states them, for the method shown. In cells and extracts the contact can be indirect. A result given as binding can be weak or reduced; the word gives no strength.
